PubChem BioAssay AID686943, Drosophila RNAi Screening Center, 2013
Purpose: 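Search across the genome for regulators of signalling from receptor tyrosine kinase to ERK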 (primary screen). System: Drosophila S2R+ haemocyte-like cells expressing YFP-tagged ERK (Rolled). Reagents: long dsRNA against Drosophila genes. Challenge: insulin stimulation versus unstimulated cells; dose and duration not given. Measurement: 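Per-plate z-scores of phospho-ERK immunostaining normalised to YFP-tagged ERK, measured with and without insulin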. Scale: replicate 1, z-score of dpERK with insulin and replicate 2, z-score of dpERK with insulin: higher = more active ERK per ERK-YFP after insulin.
The deposit covers about 23,000 reagents; this is a random part of those with a known target gene and a result. 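Extra replicates exist only for a retested subset of genes; insulin dose and duration not given; both raised and lowered dpERK matter.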 Further read-outs or replicates are left out here. Reagent sequences are not shown. Not stated in the record: the amount of reagent, the time to read-out.

Cp36 [DRSC18452]
- replicate 1, z-score of dpERK with insulin: 0.55
- replicate 2, z-score of dpERK with insulin: 0.04

CG7785 [DRSC16311]
- replicate 1, z-score of dpERK with insulin: 0.38
- replicate 2, z-score of dpERK with insulin: -0.08

CG9377 [DRSC03217]
- replicate 1, z-score of dpERK with insulin: 0
- replicate 2, z-score of dpERK with insulin: -0.07

CG6966 [DRSC16156]
- replicate 1, z-score of dpERK with insulin: -0.17
- replicate 2, z-score of dpERK with insulin: 0.3

CG8888 [DRSC07294]
- replicate 1, z-score of dpERK with insulin: -0.32
- replicate 2, z-score of dpERK with insulin: 0.47

CG8888 [DRSC07295]
- replicate 1, z-score of dpERK with insulin: -1.2
- replicate 2, z-score of dpERK with insulin: -0.12

CG31556 (retired record) [DRSC12122]
- replicate 1, z-score of dpERK with insulin: 1.3
- replicate 2, z-score of dpERK with insulin: 1.23

CG31556 (retired record) [DRSC22177]
- replicate 1, z-score of dpERK with insulin: 0.27
- replicate 2, z-score of dpERK with insulin: 0.08

COX7AL [DRSC15313]
- replicate 1, z-score of dpERK with insulin: -0.18
- replicate 2, z-score of dpERK with insulin: -1.27

RabGGTa [DRSC12189]
- replicate 1, z-score of dpERK with insulin: -0.01
- replicate 2, z-score of dpERK with insulin: -0.67

aPKC [DRSC05515]
- replicate 1, z-score of dpERK with insulin: 0.05
- replicate 2, z-score of dpERK with insulin: 0.19

aPKC [DRSC07639]
- replicate 1, z-score of dpERK with insulin: 0.5
- replicate 2, z-score of dpERK with insulin: 0.97

Pur-alpha [DRSC17166]
- replicate 1, z-score of dpERK with insulin: 0.34
- replicate 2, z-score of dpERK with insulin: 0.41

sut2 [DRSC07701]
- replicate 1, z-score of dpERK with insulin: 0.39
- replicate 2, z-score of dpERK with insulin: 0.12

Myo31DF [DRSC03376]
- replicate 1, z-score of dpERK with insulin: 0.54
- replicate 2, z-score of dpERK with insulin: -0.28

Myo31DF [DRSC22702]
- replicate 1, z-score of dpERK with insulin: 0.57
- replicate 2, z-score of dpERK with insulin: 0.26

CG13516 [DRSC04159]
- replicate 1, z-score of dpERK with insulin: 0.3
- replicate 2, z-score of dpERK with insulin: 0

dib [DRSC08711]
- replicate 1, z-score of dpERK with insulin: 0.05
- replicate 2, z-score of dpERK with insulin: -1.18

Oatp58Db [DRSC04364]
- replicate 1, z-score of dpERK with insulin: 0.33
- replicate 2, z-score of dpERK with insulin: -0.6

Sorted by “replicate 2, z-score of dpERK with insulin” (descending): some entries from above.
aPKC [DRSC07639]
- replicate 1, z-score of dpERK with insulin: 0.5
- replicate 2, z-score of dpERK with insulin: 0.97

Pur-alpha [DRSC17166]
- replicate 1, z-score of dpERK with insulin: 0.34
- replicate 2, z-score of dpERK with insulin: 0.41

The listing continues.
CG12849 [DRSC04129]
- replicate 1, z-score of dpERK with insulin: 0.4
- replicate 2, z-score of dpERK with insulin: -0.81

CG16782 [DRSC18118]
- replicate 1, z-score of dpERK with insulin: 1.23
- replicate 2, z-score of dpERK with insulin: 0

Gk2 [DRSC08610]
- replicate 1, z-score of dpERK with insulin: 0.46
- replicate 2, z-score of dpERK with insulin: 0.12

cic [DRSC14276]
- replicate 1, z-score of dpERK with insulin: -1.41
- replicate 2, z-score of dpERK with insulin: -1.39

cic [DRSC15708]
- replicate 1, z-score of dpERK with insulin: -2.69
- replicate 2, z-score of dpERK with insulin: -2.44

cic [DRSC16918]
- replicate 1, z-score of dpERK with insulin: 0.35
- replicate 2, z-score of dpERK with insulin: 1

cic [DRSC21243]
- replicate 1, z-score of dpERK with insulin: -1.14
- replicate 2, z-score of dpERK with insulin: -0.17

psd [DRSC03131]
- replicate 1, z-score of dpERK with insulin: 0.26
- replicate 2, z-score of dpERK with insulin: 0.91

CG11279 [DRSC09837]
- replicate 1, z-score of dpERK with insulin: 0.17
- replicate 2, z-score of dpERK with insulin: -0.06

Cyp4g1 [DRSC18459]
- replicate 1, z-score of dpERK with insulin: -0.35
- replicate 2, z-score of dpERK with insulin: -0.13

CG14419 [DRSC17916]
- replicate 1, z-score of dpERK with insulin: -0.24
- replicate 2, z-score of dpERK with insulin: 0

Osi3 [DRSC12175]
- replicate 1, z-score of dpERK with insulin: 0.77
- replicate 2, z-score of dpERK with insulin: 0.47
